Measured values: patent publication US20150164762A1, “USE OF ETHANOLAMINE PHOSPHATE” (priority 2012, published 2015)

Tested on: BEAS-2B
Experiment: Comprehensive gene expression analysis with Whole Human Genome DNA microarray after EP treatment
Format: cell-based
Settings: 1 mM EP, 24 hours
Experimental: Cells of the established normal human airway epithelial cell line BEAS-2B were used in the experiment. These cells were expansively cultured in 10% FBS RPMI-1640, and seeded at a density of 1×10^5/cm^2 on a 24-well plate. After 24 hours 0.1% FBS RPMI-1640 was substituted, and EP was administered to a final concentration of 0 or 1 mM (n=4). After 24 hours, the cells were used as the DNA microarray samples. RNA was extracted using a QIAGEN RNeasy Mini Kit. The DNA microarray test was performed using a Whole Human Genome DNA microarray 4×44K (Agilent), and the necessary labeling reagents and the like for the DNA microarray test were all from Agilent. The DNA microarray test data were analyzed statistically with GeneSpring (Agilent) dedicated analysis software, and gene function analysis (Gene Ontology (GO) analysis) was performed based on differential expression. The purpose of the GO analysis is to determine stochastically the degree to which gene sets with statistically significant differential expression correspond to known functional classification gene sets. […] The p-value is calculated according to the following formula.

NCCOP(=O)(O)O [EP, Ethanolamine phosphate]
number of probes (genes) whose expression was increased to 1.5-fold or more (p<0.05): 801
number of probes (genes) whose expression was reduced to 1/1.5 or less (p<0.05): 1939
